T1: Csa5 with a C-terminal 6× His-tag (Thermoproteus tenax) (UniProt G4RJZ0)
T1 sequence: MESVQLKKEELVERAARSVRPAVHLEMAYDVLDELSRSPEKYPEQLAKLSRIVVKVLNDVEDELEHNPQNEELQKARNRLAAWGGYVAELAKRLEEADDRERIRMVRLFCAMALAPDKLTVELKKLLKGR

B1: Cas7 (T. tenax cell extract) (protein, UniProt G4RJZ1 1-329)
chain: MRVAPPYVRAAGRFEAQLSVLTGAGNMGNYNMHAVAKVIHGGKAYEVPVLTGNALKHWHSVYLAEVYQDLGGTQLNEFCKKGVGLRGKNMSGEDASSEAEAIKDLCNDLHGFLLPDKQIKRDSLVRVSFAVPVLEEKNLEAASKFAVVHNRVDPFKRTQQVKSKEEQEGTEMMVFKQEYSSAVYGFAAAMDLGLSGVPLYQEGESGVDDRERALRIKSALVALLRLFNGVGSKQARALPIARLRELVIAISDSPIPNLVHGAYPDYVARSAELLTAYLKAVGKKGVVLCYGVDCPQSNNVLECKKADTLDDLFQEALRRALPGGQPARR
B2: Cas5a (T. tenax cell extract) (protein, UniProt G4RJZ2 1-226)
chain: MHYYLIEARAPLYSVKVVDVYQVASAYPLPTPHAVVGALGAAMAHAGMCRGLQCMKEAEGLVVAARPAAVGELAKFPAVLWRTRGVLEDKSLPAGLEDYAGARDAMVREYVYAHAVKILLVTRKRVPQHVIRLMARLGDSESYVSVVDVLEGKPRECGGLVNVAVRAAKARRGSYTLYRALDERGNRELFAYPVVEEGGVYRRGGVEVGSKVLCLGEAVFPEGDGW
B3: Cas8a2 (T. tenax cell extract) (protein, UniProt G4RJZ5 1-361)
chain: MTQCPQEMITPGHGIIADALIMHGLIKILHIEGKMEGWAERRGERFVVCAERPDLNWIDQWEPMELLEIAAEFKAKGKDRASEEEEQRPYFGLVHDLSRSTVDPGNFSSWISDVREALYALKADFDLSEEHKEKRGEGRARSKKRGYYTLYLPLSGVYGKYVVENYGIRQSQYAVCATCFALSTLGYIYGTVKARVERRSSSGGGHDVFNLTFIPRERTSLRSLMALQRMAGLVEMRPGDLNELGAVVYMLSVGETIYAVREGVDILVWVTQRAGNFQRTVGVNIFRGDRLLEAIAEIKYRAPSWPKIARQLGSSLNVLGEYLAFGGDVYHVIRSVMADLGRKGGKLAGLEGLAEALKKIG

These are yes or no findings as the source states them, for the method shown. Binding seen in cells or lysates may run through a third protein. Here binding means that the protein was enriched with, or labelled near, the bait; the list need not be complete. Tags and fused reporters may be left off the sequences shown.

The target of this test is T1, Csa5 with a C-terminal 6× His-tag (Thermoproteus tenax). Briefly: affinity purification with mass spectrometry; 100 µg purified C-terminal His-tagged Csa5 as bait mixed with 1 mg T. tenax cell extract, cross-linked with 1% formaldehyde 15 min on ice, cobalt resin 30 min 4°C, washed with 40 mM imidazole, eluted at 290 mM imidazole; digest in solution, LC-MS/MS; only the target purified.
Take B1: the binding result is given as “binds”. Turning to B2, the binding result is “binds”. Then B3, with “binds”.

(Values after publication PMC4005679, “In vitro assembly and activity of an archaeal CRISPR-Cas type I-A Cascade interference complex” (Nucleic Acids Research, 2014).)
